This is an account of results in patent US4017607A.

The nature of this series: Bitter taste upon oral administration.

Some compounds share one wording; it may come from a single statement.

As for `CCC(=O)OC1CC(=O)OC(C)CC=CC=CC(O)C(C)CC(CC=O)C(OC2OC(C)C(OC3CC(C)(O)C(OC(=O)CC)C(C)O3)C(N(C)C)C2O)C1OC` (stereo not shown) [SF-837 substance, reference compound], the bitter taste result is recorded as “unpleasant long-lasting bitter taste”.
